We go through one substance from patent publication US20210261618A1 (TAIAN CITY QIHANG BIOTECHNOLOGY CO., priority 2018, published 2021).

Some peptides are written in HELM: one residue between dots, names in brackets for other building blocks, links after the first $.

A short description of this series: general procedure: Fmoc solid-phase peptide synthesis. Particulars: whole synthesis.

Turning to “PEPTIDE1{R.V.L.N.G.P.E.E.E.A.A.A.P.A.E}$$$$V2.0”, the “final HPLC purity” value is over 98.5%. Moreover, the “final purity (method not given)” value (HPLC) is “greater than 99%”.
